Measured values published in US11045520B2, “Compositions and methods for topical delivery of pharmaceutical agents” (priority 2016, dated 2021).
At least one compound was matched to its structure with a doubt left.

Tested on: human skin explants
Assay: Forskolin-induced pigmentation of ETA-desquamated skin (Example 5)

## C=C[C@@]1(C)CC(=O)[C@]2(O)[C@@]3(C)[C@@H](O)CCC(C)(C)[C@@H]3[C@H](O)[C@H](OC(C)=O)[C@@]2(C)O1 [Forskolin]
Adjacent intact skin
  pigmentation by topical forskolin: No increase in pigmentation
Area treated with topically applied ETA toxin, up to a week
  pigmentation by topical forskolin: increase in pigmentation
Control adjacent skin, Forskolin applied, no desquamation
  melanin, Schmols staining: little to no melanin
Toxin treated area compared to non-desquamated adjacent skin
  melanin pigmentation, Schmol's staining: increased melanin pigmentation
